Results reported in the supplement of paper PMC10849652.
This is one part of the list.

Amino acid sequences for entries named in this document (tags omitted). A change or cut given only in a name is not applied to a line headed by its entry.
UniProt P30566: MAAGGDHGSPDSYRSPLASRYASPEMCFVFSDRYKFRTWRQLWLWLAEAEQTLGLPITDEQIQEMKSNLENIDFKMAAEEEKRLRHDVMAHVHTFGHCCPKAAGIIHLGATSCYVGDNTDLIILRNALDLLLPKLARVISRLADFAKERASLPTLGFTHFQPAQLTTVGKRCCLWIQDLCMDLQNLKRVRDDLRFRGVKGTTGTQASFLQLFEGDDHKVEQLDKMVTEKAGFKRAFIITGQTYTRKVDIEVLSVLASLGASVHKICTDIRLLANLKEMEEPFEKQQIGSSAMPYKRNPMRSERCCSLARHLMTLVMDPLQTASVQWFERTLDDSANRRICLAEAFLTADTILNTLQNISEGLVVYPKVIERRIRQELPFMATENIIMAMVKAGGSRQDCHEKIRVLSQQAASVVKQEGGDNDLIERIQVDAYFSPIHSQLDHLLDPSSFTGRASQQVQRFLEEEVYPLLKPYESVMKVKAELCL
UniProt Q9BVK2: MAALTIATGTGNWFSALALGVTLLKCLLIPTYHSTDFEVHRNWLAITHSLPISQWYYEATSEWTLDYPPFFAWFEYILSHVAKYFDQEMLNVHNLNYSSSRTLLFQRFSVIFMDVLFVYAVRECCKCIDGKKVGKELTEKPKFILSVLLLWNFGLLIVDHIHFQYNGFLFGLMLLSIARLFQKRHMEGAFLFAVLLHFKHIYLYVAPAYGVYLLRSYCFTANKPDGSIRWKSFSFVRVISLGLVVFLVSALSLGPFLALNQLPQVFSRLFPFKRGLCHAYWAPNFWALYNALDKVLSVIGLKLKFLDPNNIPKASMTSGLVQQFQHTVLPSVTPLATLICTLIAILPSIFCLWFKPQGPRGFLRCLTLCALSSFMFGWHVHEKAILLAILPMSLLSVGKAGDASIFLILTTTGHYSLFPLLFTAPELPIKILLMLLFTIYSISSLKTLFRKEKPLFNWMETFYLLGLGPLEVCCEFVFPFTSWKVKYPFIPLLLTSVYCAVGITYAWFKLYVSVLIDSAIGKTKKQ
UniProt Q9NP73: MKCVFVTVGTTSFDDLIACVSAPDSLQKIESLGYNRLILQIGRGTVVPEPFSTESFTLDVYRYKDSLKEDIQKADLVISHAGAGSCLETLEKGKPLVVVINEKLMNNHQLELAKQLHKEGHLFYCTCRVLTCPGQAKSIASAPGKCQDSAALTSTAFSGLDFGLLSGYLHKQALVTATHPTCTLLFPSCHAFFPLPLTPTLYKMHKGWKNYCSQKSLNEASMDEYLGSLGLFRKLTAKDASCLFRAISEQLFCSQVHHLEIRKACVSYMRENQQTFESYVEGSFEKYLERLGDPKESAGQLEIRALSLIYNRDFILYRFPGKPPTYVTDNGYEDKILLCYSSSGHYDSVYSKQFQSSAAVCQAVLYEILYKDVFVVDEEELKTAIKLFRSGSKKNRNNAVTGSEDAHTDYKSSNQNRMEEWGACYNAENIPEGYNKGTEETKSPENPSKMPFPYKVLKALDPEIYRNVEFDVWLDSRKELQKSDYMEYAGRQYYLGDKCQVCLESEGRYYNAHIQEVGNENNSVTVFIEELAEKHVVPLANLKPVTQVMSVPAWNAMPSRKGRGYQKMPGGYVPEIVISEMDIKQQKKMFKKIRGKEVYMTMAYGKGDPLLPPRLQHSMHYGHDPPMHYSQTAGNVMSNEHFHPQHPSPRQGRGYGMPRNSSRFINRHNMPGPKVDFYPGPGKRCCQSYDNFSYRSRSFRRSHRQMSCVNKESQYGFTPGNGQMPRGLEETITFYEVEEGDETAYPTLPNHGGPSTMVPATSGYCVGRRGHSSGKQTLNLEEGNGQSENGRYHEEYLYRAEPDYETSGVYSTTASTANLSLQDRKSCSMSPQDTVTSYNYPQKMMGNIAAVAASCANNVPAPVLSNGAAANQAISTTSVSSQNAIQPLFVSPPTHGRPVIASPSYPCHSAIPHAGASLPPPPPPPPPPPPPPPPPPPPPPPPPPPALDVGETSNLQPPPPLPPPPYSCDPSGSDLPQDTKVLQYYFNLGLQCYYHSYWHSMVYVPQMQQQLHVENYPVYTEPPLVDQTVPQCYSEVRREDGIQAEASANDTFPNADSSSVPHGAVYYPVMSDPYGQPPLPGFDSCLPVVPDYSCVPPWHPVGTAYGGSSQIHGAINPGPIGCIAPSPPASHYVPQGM
UniProt Q16186: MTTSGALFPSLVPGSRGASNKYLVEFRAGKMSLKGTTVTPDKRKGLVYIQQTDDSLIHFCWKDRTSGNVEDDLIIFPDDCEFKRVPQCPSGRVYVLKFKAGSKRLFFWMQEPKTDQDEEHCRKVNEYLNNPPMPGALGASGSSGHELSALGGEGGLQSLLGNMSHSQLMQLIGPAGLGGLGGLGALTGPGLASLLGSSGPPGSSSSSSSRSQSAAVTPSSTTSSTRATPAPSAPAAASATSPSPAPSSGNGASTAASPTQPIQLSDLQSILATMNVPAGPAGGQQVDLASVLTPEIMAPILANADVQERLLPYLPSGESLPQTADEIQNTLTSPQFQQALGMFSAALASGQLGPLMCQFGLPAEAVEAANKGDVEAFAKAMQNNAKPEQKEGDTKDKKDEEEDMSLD
UniProt P04075: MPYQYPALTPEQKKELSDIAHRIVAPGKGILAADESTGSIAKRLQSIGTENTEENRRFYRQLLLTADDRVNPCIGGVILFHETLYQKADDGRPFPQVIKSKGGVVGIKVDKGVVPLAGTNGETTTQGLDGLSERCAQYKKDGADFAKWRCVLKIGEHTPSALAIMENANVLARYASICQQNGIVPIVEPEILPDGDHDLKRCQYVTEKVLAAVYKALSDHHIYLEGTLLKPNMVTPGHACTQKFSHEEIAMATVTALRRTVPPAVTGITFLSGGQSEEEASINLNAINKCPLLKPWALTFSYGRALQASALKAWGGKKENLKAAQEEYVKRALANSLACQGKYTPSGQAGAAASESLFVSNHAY
UniProt P51648: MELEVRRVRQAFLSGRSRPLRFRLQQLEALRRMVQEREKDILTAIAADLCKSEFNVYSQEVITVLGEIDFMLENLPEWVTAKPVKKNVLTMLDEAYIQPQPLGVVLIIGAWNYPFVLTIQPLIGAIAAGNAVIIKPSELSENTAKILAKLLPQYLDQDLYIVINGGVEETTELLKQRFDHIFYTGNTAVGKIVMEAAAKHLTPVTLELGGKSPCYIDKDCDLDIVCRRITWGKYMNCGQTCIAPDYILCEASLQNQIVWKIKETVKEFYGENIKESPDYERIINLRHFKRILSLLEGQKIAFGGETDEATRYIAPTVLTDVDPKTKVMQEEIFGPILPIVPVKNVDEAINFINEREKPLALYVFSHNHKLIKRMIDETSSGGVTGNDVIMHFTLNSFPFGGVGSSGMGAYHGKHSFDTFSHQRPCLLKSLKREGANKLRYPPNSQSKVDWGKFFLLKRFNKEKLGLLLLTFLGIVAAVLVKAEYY
UniProt Q9NYG5, whole entry, looked up: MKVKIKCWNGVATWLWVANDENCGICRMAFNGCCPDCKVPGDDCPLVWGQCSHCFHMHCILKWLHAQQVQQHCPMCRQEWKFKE
UniProt Q86V24: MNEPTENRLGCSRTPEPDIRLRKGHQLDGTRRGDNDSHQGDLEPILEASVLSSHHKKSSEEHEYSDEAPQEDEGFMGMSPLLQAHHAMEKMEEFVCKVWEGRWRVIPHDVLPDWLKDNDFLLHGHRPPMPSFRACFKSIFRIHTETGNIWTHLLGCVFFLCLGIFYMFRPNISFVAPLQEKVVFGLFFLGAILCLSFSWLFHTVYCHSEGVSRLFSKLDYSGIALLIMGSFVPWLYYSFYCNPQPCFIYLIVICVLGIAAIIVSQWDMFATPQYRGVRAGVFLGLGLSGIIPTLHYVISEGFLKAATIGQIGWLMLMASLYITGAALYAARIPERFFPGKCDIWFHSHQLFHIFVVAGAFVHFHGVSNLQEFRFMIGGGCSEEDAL
UniProt P51857: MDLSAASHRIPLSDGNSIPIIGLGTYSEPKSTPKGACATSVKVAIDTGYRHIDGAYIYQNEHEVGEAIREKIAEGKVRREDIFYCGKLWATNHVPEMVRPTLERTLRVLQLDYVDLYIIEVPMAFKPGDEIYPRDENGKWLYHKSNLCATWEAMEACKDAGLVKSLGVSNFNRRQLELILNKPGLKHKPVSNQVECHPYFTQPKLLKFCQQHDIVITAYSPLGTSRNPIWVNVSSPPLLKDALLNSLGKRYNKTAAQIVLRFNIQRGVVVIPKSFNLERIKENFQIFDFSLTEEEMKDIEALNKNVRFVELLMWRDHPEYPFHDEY
UniProt Q96SZ5, whole entry, looked up: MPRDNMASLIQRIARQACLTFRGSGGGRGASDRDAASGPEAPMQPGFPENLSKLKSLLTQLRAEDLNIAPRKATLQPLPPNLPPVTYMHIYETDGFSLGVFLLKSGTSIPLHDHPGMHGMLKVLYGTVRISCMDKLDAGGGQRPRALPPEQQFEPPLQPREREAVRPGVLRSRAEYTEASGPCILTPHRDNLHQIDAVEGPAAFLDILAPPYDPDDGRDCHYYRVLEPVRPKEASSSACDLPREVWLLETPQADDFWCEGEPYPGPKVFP
UniProt P17707: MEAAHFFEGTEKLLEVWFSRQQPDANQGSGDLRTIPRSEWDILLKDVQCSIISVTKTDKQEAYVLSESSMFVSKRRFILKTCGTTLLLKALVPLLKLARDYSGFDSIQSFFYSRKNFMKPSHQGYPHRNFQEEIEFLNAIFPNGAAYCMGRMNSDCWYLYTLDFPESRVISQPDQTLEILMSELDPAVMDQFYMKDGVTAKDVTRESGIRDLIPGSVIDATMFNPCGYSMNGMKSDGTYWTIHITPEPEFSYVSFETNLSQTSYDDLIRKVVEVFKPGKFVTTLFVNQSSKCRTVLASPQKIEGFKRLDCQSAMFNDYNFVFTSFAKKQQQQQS
UniProt P13196: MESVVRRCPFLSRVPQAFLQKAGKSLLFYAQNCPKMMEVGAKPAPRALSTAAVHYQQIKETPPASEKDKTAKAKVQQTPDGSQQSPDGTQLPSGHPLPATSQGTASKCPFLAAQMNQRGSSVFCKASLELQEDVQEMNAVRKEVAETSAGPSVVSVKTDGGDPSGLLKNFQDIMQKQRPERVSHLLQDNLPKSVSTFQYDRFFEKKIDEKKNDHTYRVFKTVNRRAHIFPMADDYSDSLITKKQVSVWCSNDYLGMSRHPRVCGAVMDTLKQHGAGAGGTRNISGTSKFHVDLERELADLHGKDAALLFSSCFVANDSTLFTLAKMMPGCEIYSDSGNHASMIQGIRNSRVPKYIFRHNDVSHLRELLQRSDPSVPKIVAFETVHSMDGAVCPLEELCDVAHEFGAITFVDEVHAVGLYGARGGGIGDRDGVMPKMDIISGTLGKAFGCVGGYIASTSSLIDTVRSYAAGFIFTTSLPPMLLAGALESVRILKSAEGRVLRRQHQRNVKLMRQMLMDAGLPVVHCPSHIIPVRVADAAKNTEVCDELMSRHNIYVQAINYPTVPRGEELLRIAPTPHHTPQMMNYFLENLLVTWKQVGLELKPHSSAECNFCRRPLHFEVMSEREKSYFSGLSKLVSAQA
UniProt Q8WV93: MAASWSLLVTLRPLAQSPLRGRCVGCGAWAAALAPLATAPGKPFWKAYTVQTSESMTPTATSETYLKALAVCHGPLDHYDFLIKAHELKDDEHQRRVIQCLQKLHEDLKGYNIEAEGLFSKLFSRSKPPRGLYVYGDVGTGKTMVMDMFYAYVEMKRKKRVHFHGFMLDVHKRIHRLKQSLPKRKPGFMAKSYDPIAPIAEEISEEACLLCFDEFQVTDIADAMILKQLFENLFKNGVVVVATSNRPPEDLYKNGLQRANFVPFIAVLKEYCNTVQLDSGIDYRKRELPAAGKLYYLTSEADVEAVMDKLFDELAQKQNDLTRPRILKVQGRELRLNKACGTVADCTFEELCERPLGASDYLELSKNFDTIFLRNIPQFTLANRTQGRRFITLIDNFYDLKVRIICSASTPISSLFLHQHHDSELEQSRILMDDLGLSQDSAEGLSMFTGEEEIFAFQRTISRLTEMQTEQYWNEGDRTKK
UniProt Q9Y672: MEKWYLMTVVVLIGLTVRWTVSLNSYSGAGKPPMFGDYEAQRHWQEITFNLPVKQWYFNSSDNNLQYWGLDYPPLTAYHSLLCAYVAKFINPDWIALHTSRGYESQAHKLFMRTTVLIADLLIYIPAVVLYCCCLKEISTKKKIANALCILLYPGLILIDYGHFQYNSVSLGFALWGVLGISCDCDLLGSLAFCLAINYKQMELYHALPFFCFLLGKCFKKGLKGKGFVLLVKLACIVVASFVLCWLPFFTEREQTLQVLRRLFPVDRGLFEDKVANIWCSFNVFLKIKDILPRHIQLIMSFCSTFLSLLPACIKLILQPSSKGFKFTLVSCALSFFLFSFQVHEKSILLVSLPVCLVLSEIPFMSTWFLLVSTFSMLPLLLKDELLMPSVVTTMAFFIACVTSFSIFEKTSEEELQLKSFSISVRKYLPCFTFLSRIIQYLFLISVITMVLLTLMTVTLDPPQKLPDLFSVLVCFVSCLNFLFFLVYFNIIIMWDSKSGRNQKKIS

What was measured:
Assay in all cases: log2 fold change, soluble protein after heating vs DMSO (PISA); higher = thermal stabilisation; K562 cells, 10 uM, 30 min; active = over 0.2 and 3.5 SD of the protein, either way, in both replicates (recomputed)
bafetinib = compound: Cc1ccc(NC(=O)c2ccc(CN3CC[C@H](N(C)C)C3)c(C(F)(F)F)c2)cc1Nc1nccc(-c2cncnc2)n1 [bafetinib]
Outline: (§1)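 K562 cells at 2×10^6 cells/mL were treated for 30 min with 10 μM compound, and aliquots were heated for 3 min over 48°C-58°C before pooling. Extraction used PBS with 0.5% NP-40 at 4°C, and soluble protein was the supernatant after 21,000xg for 90 min, measured by TMTpro 16plex LC-MS/MS with channel sums equalised. Thermal stability values, relative to control samples and from duplicates, are log2 fold changes.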

[1] = compound: Cc1cccc(CC(=O)N2CCc3c2ccc(-c2cn(C)c4ncnc(N)c24)c3F)n1
Outline: as §1

nilotinib = compound: Cc1cn(-c2cc(NC(=O)c3ccc(C)c(Nc4nccc(-c5cccnc5)n4)c3)cc(C(F)(F)F)c2)cn1 [nilotinib]
Outline: as §1

[2] = compound: Cc1nc(Nc2n[nH]c3c2CN(C(=O)N[C@H](CN(C)C)c2ccccc2)C3(C)C)c2sccc2n1
Outline: as §1

dasatinib = compound: Cc1nc(Nc2ncc(C(=O)Nc3c(C)cccc3Cl)s2)cc(N2CCN(CCO)CC2)n1 [dasatinib]
Outline: as §1

[3] = compound: Cc1ncc(-c2ccnc(Nc3ccc(S(C)(=O)=O)cc3)n2)n1C(C)C
Outline: as §1

[4] = compound: Cn1cc(-c2ccc3c(c2)CCN3C(=O)Cc2cccc(C(F)(F)F)c2)c2c(N)ncnc21
Outline: as §1

[5] = compound: Cn1cc(-c2ccc3nnc(C(F)(F)c4ccc5ncccc5c4)n3n2)cn1
Outline: as §1

tipifarnib = compound: Cn1cncc1[C@@](N)(c1ccc(Cl)cc1)c1ccc2c(c1)c(-c1cccc(Cl)c1)cc(=O)n2C [tipifarnib]
Outline: as §1

mubritinib = compound: FC(F)(F)c1ccc(/C=C/c2nc(COc3ccc(CCCCn4ccnn4)cc3)co2)cc1 [mubritinib]
Outline: as §1

Measured: log2 fold change

ADSL (UniProt P30566)
inactive: bafetinib -0.042 | [1] -0.043 | nilotinib 0.013 | [2] -0.004 | dasatinib 0.041 | [3] -0.024 | [4] -0.006 | [5] 0.019 | tipifarnib -0.003 | mubritinib 0.038

ALG8 (UniProt Q9BVK2)
inactive: bafetinib -0.008 | [1] 0.014 | nilotinib -0.062 | [2] 0.047 | dasatinib -0.038 | [3] -0.012 | [4] 0.059 | [5] 0.016 | tipifarnib -0.094 | mubritinib -0.002

ALG13 (UniProt Q9NP73)
inactive: bafetinib -0.004 | [1] 0.009 | nilotinib 0.029 | [2] 0 | dasatinib -0.018 | [3] -0.046 | [4] -0.004 | [5] 0 | tipifarnib 0.01 | mubritinib 0.07

AIDA (UniProt Q96BJ3)
inactive: bafetinib -0.016 | [1] 0.073 | nilotinib 0.012 | [2] -0.065 | dasatinib -0.104 | [3] -0.092 | [4] 0 | [5] -0.001 | tipifarnib 0.004 | mubritinib -0.025

AGFG1 isoform 4 (UniProt P52594)
inactive: bafetinib -0.097 | [1] 0.126 | nilotinib 0.041 | [2] -0.029 | dasatinib 0.004 | [3] 0.02 | [4] 0.044 | [5] 0.027 | tipifarnib -0.077 | mubritinib 0.046

AMFR (UniProt Q9UKV5)
inactive: bafetinib -0.095 | [1] 0.099 | nilotinib -0.051 | [2] -0.016 | dasatinib -0.094 | [3] 0.049 | [4] 0.029 | [5] -0.06 | tipifarnib 0.05 | mubritinib -0.018

ADD2 (UniProt P35612)
inactive: bafetinib 0.012 | [1] 0.011 | nilotinib 0.022 | [2] -0.026 | dasatinib -0.033 | [3] -0.048 | [4] 0.029 | [5] 0.001 | tipifarnib 0.035 | mubritinib 0.011

ADRM1 (UniProt Q16186)
active: bafetinib 0.238
inactive: [1] 0.072 | nilotinib 0.028 | [2] 0.063 | dasatinib -0.036 | [3] 0.006 | [4] -0.061 | [5] -0.003 | tipifarnib 0.01 | mubritinib -0.006

ALDH9A1 isoform 3 (UniProt P49189)
inactive: bafetinib -0.003 | [1] 0.001 | nilotinib 0.012 | [2] -0.019 | dasatinib 0.025 | [3] -0.018 | [4] 0.041 | [5] 0.001 | tipifarnib -0.002 | mubritinib -0.005

ALDH18A1 (UniProt P54886)
active: mubritinib -0.561
inactive: bafetinib -0.206 | [1] 0.071 | nilotinib -0.3 | [2] -0.15 | dasatinib -0.133 | [3] 0.042 | [4] -0.202 | [5] -0.128 | tipifarnib -0.141

ALDH2 isoform 2 (UniProt P05091)
inactive: bafetinib -0.029 | [1] -0.124 | [5] 0.244 | tipifarnib 0.015

ALDOA (UniProt P04075)
inactive: bafetinib 0.048 | [1] -0.137 | nilotinib 0.108 | [2] -0.014 | dasatinib 0.287 | [3] -0.001 | [5] -0.079 | tipifarnib 0.078 | mubritinib 0.002

AGA (UniProt P20933)
inactive: bafetinib -0.114 | [1] -0.112 | [4] -0.009 | tipifarnib 0.248 | mubritinib -0.03

ALDH3A2 isoform 2 (UniProt P51648)
inactive: bafetinib -0.293 | dasatinib -0.42

ANAPC11 (UniProt Q9NYG5)
inactive: bafetinib -0.063 | dasatinib -0.016 | [4] -0.091

AGPAT4 (UniProt Q9NRZ5)
inactive: bafetinib -0.131 | [1] 0.013 | nilotinib -0.08 | [2] -0.101 | dasatinib 0.041 | [3] 0.05 | [4] 0.056 | [5] 0.096 | tipifarnib -0.006 | mubritinib 0.182

ADD1 isoform 4 (UniProt P35611)
inactive: bafetinib -0.034 | [1] 0.033 | [4] 0.114

ADIPOR2 (UniProt Q86V24)
inactive: bafetinib 0.084 | [1] 0.037 | dasatinib 0.046 | [4] 0.064 | tipifarnib 0.142

Reprinted at random: 2 entries already listed.
ADD1 isoform 4 (UniProt P35611)
inactive: bafetinib -0.034 | [1] 0.033 | [4] 0.114

AGPAT4 (UniProt Q9NRZ5)
inactive: bafetinib -0.131 | [1] 0.013 | nilotinib -0.08 | [2] -0.101 | dasatinib 0.041 | [3] 0.05 | [4] 0.056 | [5] 0.096 | tipifarnib -0.006 | mubritinib 0.182

(list continues)

AGAP3 isoform 4 (UniProt Q96P47)
inactive: bafetinib -0.144 | nilotinib 0.138 | [2] -0.016 | [3] -0.049 | [4] -0.077 | [5] -0.082 | tipifarnib -0.012 | mubritinib -0.156

AKR1D1 (UniProt P51857)
inactive: bafetinib 0.03 | [1] -0.042 | dasatinib 0.018 | [4] -0.04 | tipifarnib 0.392

AMBP (UniProt P02760)
inactive: bafetinib -0.235 | [1] -0.01 | dasatinib 0 | [4] 0.21 | tipifarnib 0.12 | mubritinib -0.298

ADO (UniProt Q96SZ5)
inactive: bafetinib -0.029 | [1] -0.045 | nilotinib 0.038 | [2] 0.002 | dasatinib -0.011 | [3] 0.003 | [4] 0.052 | [5] -0.051 | tipifarnib -0.015 | mubritinib 0.025

AMD1 (UniProt P17707)
inactive: bafetinib 0.091 | [1] -0.141 | nilotinib -0.089 | [2] 0.001 | [3] -0.037 | [5] -0.071 | tipifarnib -0.022 | mubritinib 0.056

ADGRE2 (UniProt Q9UHX3)
inactive: bafetinib 0.047 | [1] -0.096 | nilotinib 0.029 | [2] 0.068 | [3] 0.126 | [5] 0.06 | tipifarnib 0.099 | mubritinib 0.095

ALAS1 (UniProt P13196)
inactive: bafetinib 0.051 | [1] -0.084 | tipifarnib 0.026 | mubritinib 0.001

AFG1L (UniProt Q8WV93)
inactive: bafetinib -0.041 | nilotinib -0.061 | [2] -0.048 | dasatinib -0.023 | [3] 0.043 | [4] 0.077 | [5] 0.109 | tipifarnib 0.19 | mubritinib 0.031

AMN1 (UniProt Q8IY45)
inactive: bafetinib -0.112 | [1] -0.075 | nilotinib -0.006 | [2] -0.041 | dasatinib -0.082 | [3] 0.048 | [4] 0.008 | tipifarnib -0.003 | mubritinib 0.047

ALG6 (UniProt Q9Y672)
inactive: bafetinib 0.005 | [1] 0.016 | nilotinib 0.037 | [2] 0.002 | dasatinib -0.032 | [3] -0.049 | [4] -0.016 | tipifarnib -0.075 | mubritinib 0.026

ALKBH8 isoform 4 (UniProt Q96BT7)
inactive: bafetinib 0.05 | [1] 0.057 | dasatinib -0.059 | [4] 0.198 | mubritinib -0.048

AFF1 isoform 2 (UniProt P51825)
inactive: bafetinib 0.344 | [1] -0.022 | nilotinib -0.181 | [2] 0.024 | dasatinib 0.115 | [3] -0.05 | tipifarnib 0.093 | mubritinib -0.091

AFDN isoform 1 (UniProt P55196)
inactive: bafetinib -0.053 | [1] -0.077 | dasatinib -0.152 | [4] -0.027 | [5] 0.07 | mubritinib 0.031

AHCTF1 isoform 2 (UniProt Q8WYP5)
inactive: bafetinib -0.075 | [1] 0.048 | nilotinib -0.376 | [2] 0.021 | dasatinib -0.024 | [3] -0.261 | [4] -0.459 | [5] -0.004 | mubritinib 0.016

ALG13 isoform 2 (UniProt Q9NP73)
inactive: bafetinib -0.021 | [1] 0.07 | nilotinib 0.076 | [2] 0.056 | dasatinib 0.007 | [3] -0.035 | tipifarnib -0.016 | mubritinib -0.102
